Assay results reported in patent publication US7268162B2, “Aloe-emodin derivatives and their use in the treatment of neoplasias” (Universita' Degli Studi di Padova, priority 2001, dated 2007).
At least one structure is not confirmed: it was looked up by name or label, or the drawing left a doubt.

test system: LoVo 109; assay: In vitro cytotoxicity assay (MTT), colon adenocarcinoma LoVo 109; type: cell-based, human; settings: 72 hrs exposure, medium with 10% inactivated FBS
Experimental: In vitro cytotoxicity assays were conducted on different tumour cell lines, also of neuroectodermal origin. Purpose of said assays was also to check the compounds cytotoxic action and specificity. […] The aforesaid cells were assayed with the following compounds: • AM: ester of maleic acid (ex. 1) dissolved in DMSO • AS: ester of succinic acid (ex. 2) dissolved in DMSO • ADG: ester of diglycolic acid (ex. 3) dissolved in DMSO • AF: ester of phthalic acid (ex. 4) dissolved in DMSO • ABT: […] AE phosphoric ester (ex.12) dissolved in HEPES • AED: AE acetal with daunosamine (ex.13) dissolved in HEPES The cells, cultured according to known methods, were seeded 24 hrs prior to treatment with the various derivatives at a concentration of 1000 cells/100 μl. For molecules dissolved in dimethylsulphoxide, DMSO, the concentration of the initial stock was 200 mM and for molecules dissolved in a HEPES buffer and in the physiological solution was 1 mM. […] For each assay, a control was carried out with the medium alone (RPMI with 10% inactivated fetal bovine serum, FBS, and 1% penicillin/streptomycin). […] The cells viability was assessed by the MTT dye assay. […] The EC50 values (μM) referred to each compound and cell line are given.

Compound | EC50 [µM]
O=C(O)C=CC(=O)OCc1cc(O)c2c(c1)C(=O)c1cccc(O)c1C2=O [Ex. 1: AM, mono-(4,5-dihydroxy-9,10-dioxo-9,10-dihydroanthracen-2-ylmethyl)ester but-2-endioic acid] | 250
O=C(O)c1ccccc1C(=O)OCc1cc(O)c2c(c1)C(=O)c1cccc(O)c1C2=O [Ex. 4: AF, mono-(4,5-dihydroxy-9,10-dioxo-9,10-dihydroanthracen-2-ylmethyl)ester phthalic acid] | 250
O=C(O)c1ccc(C(=O)OCc2cc(O)c3c(c2)C(=O)c2cccc(O)c2C3=O)c(C(=O)O)c1 [Ex. 5: ABT, 1-(4,5-dihydroxy-9,10-dioxo-9,10-dihydroanthracen-2-ylmethyl)ester 1,2,4-Benzenetricarboxylic acid] | 250
